Experimental data: PubChem BioAssay AID686937 (Drosophila RNAi Screening Center, 2013)

Purpose: 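Knock-downs that reduce output of a secreted reporter enzyme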 (primary screen)
Cell system: Drosophila S2 cells expressing secreted horseradish peroxidase
Reagent: long dsRNA against Drosophila genes
Timing: about 5.5 days (5 days dsRNA, then 12 h reporter induction)
Challenge: reporter expression induced after 5 days of dsRNA, read 12 h later; inducer not stated
Measurement: 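After 5 days of dsRNA and 12 h of reporter induction, medium peroxidase read by chemiluminescence and scored as per-plate z-score; higher values mean more reporter released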
Scale: z-score: higher = more reporter secreted into medium
The screen tested about 23,000 reagents; shown is a random part of those with a known target gene and a result. 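Reduced-secretion tags in replicate 1 do not always agree with the z-scores; no criterion for assigning the tags was given.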 Not all columns of the deposit are shown. Reagent sequences are not shown. Not stated in the record: the amount of reagent.

With knock-down of DCAF12 (DDB1 and CUL4 associated factor 12) [DRSC15475], the screen gave z-score, replicate 1 = 0.28.
Silencing of CG4741 [DRSC04228] resulted in: z-score, replicate 1 = 0.14.
For CG4741 [DRSC04485], the entry reads z-score, replicate 1 = 0.19.
Depletion of Oda (Ornithine decarboxylase antizyme) [DRSC07626] gave: z-score, replicate 1 = 0.39.
Against CG3036 [DRSC00260], the values are z-score, replicate 1 = 0.19.
After knock-down of CG3036 [DRSC00562], the record shows z-score, replicate 1 = 0.36.
After knock-down of Hsc70-2 (Heat shock protein 70 cognate 2) [DRSC16710], the record shows z-score, replicate 1 = 0.59.
Depletion of Rx (Retinal Homeobox) [DRSC03837] gave: z-score, replicate 1 = 0.32.
Against Rx (Retinal Homeobox) [DRSC04652], the values are z-score, replicate 1 = 0.8.
Against Dlish (Dachs ligand with SH3s) [DRSC06016] the deposit lists z-score, replicate 1 = 0.45.
With knock-down of Swt1 (Swt1 RNA endoribonuclease) [DRSC20028] the results were z-score, replicate 1 = 0.21.
Knock-down of CG4570 [DRSC15602] came out at: z-score, replicate 1 = 0.25.
Silencing of CG32832 [DRSC01562] resulted in: z-score, replicate 1 = -0.09.
With knock-down of CG5172 [DRSC19936] the results were z-score, replicate 1 = -0.45.
With knock-down of mRpL37 (mitochondrial ribosomal protein L37) [DRSC16062], the record shows z-score, replicate 1 = 0.07.
For CG6280 [DRSC06972], the entry reads z-score, replicate 1 = 0.26.
CG34136 [DRSC01833] showed z-score, replicate 1 = -0.33.
For mthl12 (methuselah-like 12) [DRSC12964], the values are z-score, replicate 1 = 0.74.
CG31091 [DRSC15933] gave z-score, replicate 1 = 0.24.
Depletion of Spn42De (Serpin 42De) [DRSC05011] gave: z-score, replicate 1 = 0.12.
srw (shrew) [DRSC08201] gave z-score, replicate 1 = 0.26.
CG13747 [DRSC06418] showed z-score, replicate 1 = 0.42.
After knock-down of CG17169 [DRSC20905], the screen gave z-score, replicate 1 = -0.51.
With knock-down of ninaB (neither inactivation nor afterpotential B) [DRSC16807] the results were z-score, replicate 1 = 0.32.
With knock-down of Cpr47Ee (Cuticular protein 47Ee) [DRSC06343], the screen gave z-score, replicate 1 = -2.88.
With knock-down of CG33127 [DRSC00011] the results were z-score, replicate 1 = 0.33.
For CG8128 [DRSC20084], the values are z-score, replicate 1 = 0.48.
Against CG31517 [DRSC13010], the values are z-score, replicate 1 = 0.29.
After knock-down of CG4497 [DRSC02754], the record shows z-score, replicate 1 = -0.32.
CG7601 [DRSC14131] gave z-score, replicate 1 = 0.51.
Knock-down of l(2)34Fd (lethal (2) 34Fd) [DRSC01911] came out at: z-score, replicate 1 = 0.09.
For lncRNA:CR43302 (long non-coding RNA:CR43302) [DRSC12668], the entry reads z-score, replicate 1 = 0.42.
After knock-down of CG7763 [DRSC07043], the screen gave z-score, replicate 1 = 0.35.
After knock-down of Adk3 (Adenosine kinase 3) [DRSC05917], the screen gave z-score, replicate 1 = 0.15.
After knock-down of CG14797 [DRSC17955], the record shows z-score, replicate 1 = 0.26.
Knock-down of ifc (infertile crescent) [DRSC03549] gave: z-score, replicate 1 = 0.39.
Depletion of CG32407 [DRSC09789] came out at: z-score, replicate 1 = 0.33.
After knock-down of Ercc1 [DRSC07424], the screen gave z-score, replicate 1 = -0.36.
Knock-down of Pde9 (Phosphodiesterase 9) [DRSC19746] came out at: z-score, replicate 1 = 0.24.
Depletion of Pde9 (Phosphodiesterase 9) [DRSC19874] resulted in: z-score, replicate 1 = 0.27.
Against Pde9 (Phosphodiesterase 9) [DRSC19875], the values are z-score, replicate 1 = 0.37.
For Pde9 (Phosphodiesterase 9) [DRSC19876], the entry reads z-score, replicate 1 = 0.2.

4 entries from above, arranged by “z-score, replicate 1”, highest first:
CG6280 [DRSC06972] — z-score, replicate 1: 0.26
mRpL37 (mitochondrial ribosomal protein L37) [DRSC16062] — z-score, replicate 1: 0.07
CG32832 [DRSC01562] — z-score, replicate 1: -0.09
CG5172 [DRSC19936] — z-score, replicate 1: -0.45
